Among the data in paper PMC3533138 are binding values, retold here.

Sequences of proteins named here, by UniProt entry; tags and fusion partners are left off.
UniProt Q04207: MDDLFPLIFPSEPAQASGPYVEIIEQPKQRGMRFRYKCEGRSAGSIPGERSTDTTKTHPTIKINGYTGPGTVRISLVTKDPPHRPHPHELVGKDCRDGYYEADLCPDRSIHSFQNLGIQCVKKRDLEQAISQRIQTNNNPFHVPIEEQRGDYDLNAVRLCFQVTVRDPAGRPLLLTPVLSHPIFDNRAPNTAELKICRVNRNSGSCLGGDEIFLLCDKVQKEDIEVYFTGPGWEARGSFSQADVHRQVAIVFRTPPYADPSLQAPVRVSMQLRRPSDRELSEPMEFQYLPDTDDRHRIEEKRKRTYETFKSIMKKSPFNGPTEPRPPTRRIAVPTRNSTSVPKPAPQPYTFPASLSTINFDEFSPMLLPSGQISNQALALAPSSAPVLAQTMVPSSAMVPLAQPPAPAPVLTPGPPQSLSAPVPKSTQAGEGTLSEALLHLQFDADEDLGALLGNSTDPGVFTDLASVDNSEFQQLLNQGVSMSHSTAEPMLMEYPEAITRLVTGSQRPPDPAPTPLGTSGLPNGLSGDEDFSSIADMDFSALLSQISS
UniProt Q9Z1E3: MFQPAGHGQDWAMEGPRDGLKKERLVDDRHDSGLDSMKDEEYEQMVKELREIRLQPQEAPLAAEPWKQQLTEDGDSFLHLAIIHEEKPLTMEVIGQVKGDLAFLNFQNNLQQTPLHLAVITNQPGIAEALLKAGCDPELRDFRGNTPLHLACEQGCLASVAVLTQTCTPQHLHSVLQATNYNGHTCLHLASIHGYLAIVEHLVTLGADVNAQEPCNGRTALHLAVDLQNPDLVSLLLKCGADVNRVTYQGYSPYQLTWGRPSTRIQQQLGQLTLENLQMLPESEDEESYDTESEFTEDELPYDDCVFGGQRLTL

The experiment deals with p65 (RelA), NFκB subunit (mouse (endogenous in primary mouse hepatocytes)) (UniProt Q04207). Description: co-IP; endogenous p65 immunoprecipitated with 3 ug anti-p65 (clone F6) and G PLUS-Agarose from 1.5 mg NP-40 lysate (50 mM Tris-HCl, 150 mM NaCl, 1% NP-40) of primary mouse hepatocytes, over-night; washed three times with HNTG buffer; immunoblot with anti-IκBα; cells unstimulated or stimulated with 10 ng/ml TNFα for the indicated times. (In western blotting, separated proteins are transferred to a membrane and probed.)

These are yes or no findings as the source states them, for the method shown. Binding seen in cells or lysates may run through a third protein. Some entries that bind do so weakly or less than the wild type.

Regarding “IκBα (inhibitor of NFκB alpha) (from UniProt Q9Z1E3 1-314)”, the binding entry is “binds”.
